Laboratory results published in PubChem BioAssay AID2685 (National Center for Advancing Translational Sciences (NCATS), 2010).
This is one part of the list. Further columns of the screen follow, without active or inactive calls. Compounds called inactive in the main read-out are mostly missing here. The note in brackets gives the kind of curve behind each potency; many fits are weak.

Assay: qHTS Assay for Lipid Storage Modulators in Drosophila S3 Cells;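 for cell number change: cells counted by Cell Tracker Red CMTPX staining in the red channel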
Details: BODIPY lipid droplet fluorescence, 18-24 h; for cell number change: measured here: cell count max response, cells fed with added oleic acid
Outline: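 Laser-scanning cytometry quantifies lipid droplet accumulation (500–530 nm total intensity; droplet/cell object ratio) in oleic acid-fed (400 uM added) Drosophila S3 cells treated with a concentration series. 20 uM Triacsin C defined 100% inhibition.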

[1] = measured here: lipid fluorescence (Fed channel) AC50, cells fed with added oleic acid
[2] = measured here: cell number channel AC50, cells fed with added oleic acid

Row | Compound | cell number change | AC50 [1] | AC50 [2]
1 | Cc1cc(C)nc(N2CCCC(C(=O)NCCc3ccccc3F)C2)n1 (centres undefined) | -19.3% | 3.66 µM [rising, partial curve] | 
2 | Cn1c(SCC(=O)N2CCOCC2)nnc1-c1cnccn1 | -117% | 25.9 µM [falling, partial curve] | 25.9 µM [falling, partial curve]
3 | CC(NC(=O)COc1ccccc1)C(c1ccccc1)N1CCN(C)CC1 (centres undefined) | 3.25% |  | 
4 | COc1ccccc1/C=C1\SC(=O)N(CCC(=O)N2CCCCC2CCO)C1=O (centres undefined) | 3.24% |  | 
5 | O=C(COc1cccnc1[N+](=O)[O-])NCCc1ccc(Cl)cc1 | -106% | 29.1 µM [falling, partial curve] | 29.1 µM [falling, single point]
6 | O=C(CCN1C(=O)c2ccccc2C1=O)Nc1ccc(-c2cn3ccsc3n2)cc1 | -51.1% | 29.1 µM [falling, single point] | 16.4 µM [falling, single point]
7 | CC(=O)Nc1ccc(OCC(=O)NC(C)c2ccc(F)cc2)cc1 (centres undefined) | 7.44% |  | 
8 | CC(C)CNC(=O)c1ccc(Cl)c(N)c1 | 55.7% | 6.51 µM [falling, single point] | 1.84 µM [falling, partial curve]
9 | CCOC(=O)c1c(NC(=O)COC(=O)CC(NC(C)=O)c2ccccc2)sc(C(=O)NC)c1C (centres undefined) | -15.8% | 6.51 µM [rising, single point] | 
10 | Cn1nnnc1SC(C(=O)Nc1ccc(F)cc1)c1ccccc1 (centres undefined) |  | 6.51 µM [rising, partial curve, poor fit] | 0.13 µM [rising, full curve, poor fit]
11 | CCN(CC)C(=O)COc1ccc2c(c1)C(=O)CC(C)(C)O2 | 3.43% |  | 0.103 µM [rising, full curve, poor fit]
12 | Cc1ccccc1C(OCC(O)CN1CCCCC1CCO)c1ccccc1 (centres undefined) | -21.4% |  | 5.17 µM [falling, single point]
13 | CC1CN(c2ccccc2)NC1=O (centres undefined) | 11.3% | 0.082 µM [falling, partial curve, poor fit] | 
14 | O=C(Nc1ccc2c(c1)OCO2)Nc1cnccn1 | 280% | 0.103 µM [rising, full curve, poor fit] | 
15 | CC(C)N1CCC2(CC1)C(C#N)=C(N)NC(S)=C2C#N | -46.3% |  | 18.4 µM [falling, single point]
16 | O=C(C1CCCO1)N1CCN(C(=S)Nc2ccccc2Cl)CC1 (centres undefined) | -33.4% | 0.184 µM [falling, full curve, poor fit] | 3.66 µM [falling, partial curve, poor fit]
17 | O=C(C1=COCCO1)N1CCN(S(=O)(=O)c2cccc(F)c2)CC1 | -8.16% | 29.1 µM [falling, single point] | 
18 | Cc1ccc(S(=O)(=O)/N=C2\C=C(Nc3cccc(C(=O)O)c3)C(=O)c3ccccc32)c(C)c1 | -40.5% | 29.1 µM [falling, single point] | 29.1 µM [falling, single point]
19 | COc1ccc(-c2cc(-c3ccc(Br)cc3)nc3ncnn23)cc1OC | -16.7% | 1.84 µM [rising, partial curve] | 2.06 µM [rising, partial curve]

Row | Compound | cell number change | AC50 [1] | AC50 [2]
20 | CSc1nsc(NC(=O)OCc2ccc(Cl)cc2)n1 | 1.72% | 29.1 µM [falling, single point] | 
21 | Cc1ccc2cc(C)c(NCCO)nc2c1 | 0.857% |  | 0.13 µM [falling, full curve]
22 | COc1ccccc1NC(=O)C1=C(C)Nc2ncnn2C1c1ccc(C)o1 (centres undefined) |  | 0.517 µM [rising, full curve] | 6.51 µM [rising, partial curve]
23 | CCOc1ccc(C2C(C(=O)c3ccc(C)o3)=C(O)C(=O)N2Cc2cccnc2)cc1 (centres undefined) |  | 6.51 µM [falling, single point] | 
24 | Cc1ccc(CNC(=O)C2CCCN(C(=O)N(C)C)C2)cc1 (centres undefined) | -32.4% | 3.66 µM [falling, partial curve] | 29.1 µM [falling, single point]
25 | C=CCN(C(=O)CNS(=O)(=O)c1ccccc1)C(C(=O)NCCOC)c1cccnc1 (centres undefined) | 24.2% | 0.651 µM [falling, single point] | 
26 | CC(C)Cn1cnc2c1c(=O)n(C)c(=O)n2C | 62.4% |  | 16.4 µM [rising, partial curve, poor fit]
27 | CCOc1ccccc1NC(=O)C1CCCN(S(=O)(=O)c2ccc3c(c2)C(C)(C)C(=O)N3C)C1 (centres undefined) | -17.4% | 29.1 µM [falling, single point] | 
28 | CCn1c(SC(C)C(=O)O)nnc1-c1cccnc1 (centres undefined) | -104% | 0.82 µM [falling, full curve] | 16.4 µM [falling, partial curve]
29 | O=C(CSc1nc2ccccc2[nH]1)c1ccco1 | -12.1% | 14.6 µM [rising, single point] | 
30 | CC1(C)CC(=O)N(CC(=O)N2CCN(c3ncccn3)CC2)c2ccccc2S1(=O)=O | 1.59% | 25.9 µM [falling, partial curve, poor fit] | 
31 | COc1cc(C=O)c(Br)cc1OC1CCCC1 | 15.6% | 0.58 µM [falling, single point] | 0.13 µM [falling, full curve]
32 | CCOC(=O)C1CCCN(C(=S)Nc2ccc(C)cc2C)C1 (centres undefined) | 41% |  | 20.6 µM [rising, single point]
33 | CCC(C)NS(=O)(=O)c1cccs1 (centres undefined) | -44.2% | 2.31 µM [falling, full curve] | 1.03 µM [falling, full curve]
34 | Cc1c(C(=O)O)nnn1-c1ccccc1 | 12.6% | 3.66 µM [falling, full curve] | 
35 | Nc1ccc(Nc2ccccc2)cc1 | -44.8% | 20.6 µM [falling, single point] | 20.6 µM [falling, partial curve]
36 | COc1ccc(CC(=O)Nc2nnc(CC(C)C)s2)cc1S(=O)(=O)N1CCOCC1 | 6.02% |  | 
37 | O=C(COC(=O)c1ccc(Br)cc1)NC(=O)NCc1ccccc1 | -17.2% | 14.6 µM [falling, single point] | 
38 | CC(C)(C#N)c1cc(Cn2cncn2)cc(C(C)(C)C#N)c1 | -3.09% | 4.11 µM [falling, single point] | 

Part of the list above, set out differently:
Row	Compound	cell number change	AC50 [1]	AC50 [2]
28	CCn1c(SC(C)C(=O)O)nnc1-c1cccnc1 (centres undefined)	-104%	0.82 µM [falling, full curve]	16.4 µM [falling, partial curve]
30	CC1(C)CC(=O)N(CC(=O)N2CCN(c3ncccn3)CC2)c2ccccc2S1(=O)=O	1.59%	25.9 µM [falling, partial curve, poor fit]	
33	CCC(C)NS(=O)(=O)c1cccs1 (centres undefined)	-44.2%	2.31 µM [falling, full curve]	1.03 µM [falling, full curve]
36	COc1ccc(CC(=O)Nc2nnc(CC(C)C)s2)cc1S(=O)(=O)N1CCOCC1	6.02%		
37	O=C(COC(=O)c1ccc(Br)cc1)NC(=O)NCc1ccccc1	-17.2%	14.6 µM [falling, single point]	

(list continues)

Row | Compound | cell number change | AC50 [1] | AC50 [2]
39 | COc1ccc(C)cc1N(CC(=O)Nc1cccc(N(C)S(C)(=O)=O)c1)S(C)(=O)=O | 23.4% | 6.51 µM [falling, single point] | 
40 | CCc1ccc(OCC(=O)N/N=C\c2ccco2)c([N+](=O)[O-])c1 | 32.2% | 10.3 µM [rising, partial curve] | 5.17 µM [rising, partial curve]
41 | COc1ccc2cc(-c3cc(C(=O)OCC(=O)Nc4c(C)n(C)n(-c5ccccc5)c4=O)c4ccccc4n3)ccc2c1 | -15.9% | 0.82 µM [falling, full curve, poor fit] | 
42 | O=c1[nH]c(SCc2cccc(Cl)c2)nc2ccccc12 | -3.95% | 4.61 µM [rising, single point] | 6.51 µM [rising, single point]
43 | Cc1ccc(Nc2nc(NCC3CCCO3)nc(N)c2[N+](=O)[O-])cc1C (centres undefined) | 1.77% | 4.11 µM [rising, single point] | 
44 | COc1cc(NC(=O)c2cccs2)ccc1NC(=O)Cc1ccccc1 | -23.8% |  | 
45 | COc1ccccc1C(=O)Oc1ccc2c(c1)O/C(=C\c1ccncc1)C2=O | 1.66% | 29.1 µM [falling, single point] | 
46 | Cc1oc(-c2ccccc2F)nc1CS(=O)(=O)CC(=O)NCc1ccco1 | 11.2% |  | 
47 | COc1ccc(NC(=O)c2nnn(CC(=O)Nc3ccc4c(c3)OCO4)c2N)c(OC)c1 | -3.95% | 0.92 µM [rising, full curve] | 0.259 µM [rising, partial curve, poor fit]
48 | NS(=O)(=O)c1ccc(N2CCOCC2)c(C(=O)NCc2ccc3c(c2)OCO3)c1 | 99.5% |  | 11.6 µM [rising, partial curve]
49 | COc1ccccc1Nc1cc(C(=O)N2CCc3ccccc3C2)c2ccccc2n1 | 50.9% | 29.1 µM [rising, single point] | 29.1 µM [rising, single point]
50 | Cc1nc2ccc(NC(=O)N3CCOCC3)cc2s1 | 48.7% | 18.4 µM [rising, partial curve] | 7.31 µM [rising, partial curve]
51 | CCCNS(=O)(=O)c1ccc(CCC(=O)N2CCN(CC)CC2)cc1 | -102% | 0.651 µM [falling, full curve] | 32.6 µM [falling, partial curve]
52 | COc1ccc(CNC(=O)C(CCSC)NC(=O)c2ccco2)cc1 (centres undefined) | 85.1% |  | 23.1 µM [rising, partial curve]
53 | CCCCCSc1nnc(N)s1 | 2.94% | 0.461 µM [falling, single point] | 
54 | Cc1ccc(S(=O)(=O)NN2C(=O)/C(=C\c3ccc(Cl)cc3)SC2=S)cc1 | -11.5% |  | 0.82 µM [rising, partial curve]
55 | Cc1cc(C)cc(-n2cc(C(=O)O)c(=O)cc2C)c1 | 0.678% | 2.31 µM [rising, partial curve] | 
56 | O=C(c1ccc(S(=O)(=O)NCc2ccco2)cc1)N1CCN(Cc2ccc3c(c2)OCO3)CC1 | 55.8% |  | 
57 | O=C(NC1CCN(C(=O)NCc2ccccc2)CC1)c1ccccc1 | 19% | 29.1 µM [rising, single point] | 
